The series is described as follows: Reaction with CuCl2 to produce the Cu(II) bis(N,N-diethyldithiocarbamate) complex (HPLC). Conditions: 1 mM aqueous, CuCl2 1 mM, FIG. 15.

In the case of `CCN(CC)C(=S)SC1OC(CO)C(O)C(O)C1NC(C)=O` (stereo not drawn) [AG-DDC, 2-N-acetyl-glycosylamine diethyldithiocarbamate], the “reaction with copper(II) chloride relative to disulfiram” value was “fast”.

As for `CCN(CC)C(=S)SC1CC(O)C(O)C(CO)O1` (stereo not drawn) [DG-DDC, 2-Deoxy-glycosyl diethyldithiocarbamate], the “reaction with copper(II) chloride relative to disulfiram” value was “fast”.

In the case of `CCN(CC)C(=S)SC1O[C@H](CO)[C@@H](O)[C@H](O)[C@H]1O` (stereo partly drawn) [G-DDC, Glycosyl diethyldithiocarbamate], the “reaction with copper(II) chloride relative to disulfiram” value was “fast”.
